The other results are listed elsewhere or left out.
Key:
Test in all cases: glycan array binding signal (z-score within array); higher = stronger binding
Details in all cases: glycan notation: IUPAC condensed, linker removed
[1] = molecular target: Neu5Ac(a2-6)Gal(b1-4)GlcNAc(b1-2)Man(a1-3)[GlcNAc(b1-2)Man(a1-6)]Man(b1-4)GlcNAc(b1-4)GlcNAc
How it was run: (§1)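 The Consortium for Functional Glycomics database supplied 3228 glycan arrays, of which those lacking an available protein sequence were dropped. The binding signal, a within-array Z-score, was averaged across arrays of the same protein sequence and across linkers. Negative scores can be read as non-binding.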

[2] = molecular target: Neu5Ac(a2-6)Gal(b1-4)GlcNAc(b1-2)Man(a1-3)[GlcNAc(b1-2)Man(b1-4)GlcNAc(b1-2)Man(a1-6)]Man(b1-4)GlcNAc(b1-4)GlcNAc
How it was run: as §1

[3] = molecular target: Neu5Ac(a2-6)Gal(b1-4)GlcNAc(b1-2)Man(a1-3)[Man(a1-6)]Man(b1-4)GlcNAc(b1-4)GlcNAc
How it was run: as §1

[4] = molecular target: Neu5Ac(a2-6)Gal(b1-4)GlcNAc(b1-2)Man(a1-3)[Neu5Ac(a2-6)Gal(b1-4)GlcNAc(b1-2)Man(a1-6)]Man(b1-4)GlcNAc(b1-4)GlcNAc
How it was run: as §1

[5] = molecular target: Neu5Ac(a2-6)Gal(b1-4)GlcNAc(b1-2)Man(a1-6)Man(b1-4)GlcNAc(b1-4)GlcNAc
How it was run: as §1

[6] = molecular target: Neu5Ac(a2-6)Gal(b1-4)GlcNAc(b1-2)Man(a1-6)[Gal(b1-4)GlcNAc(b1-2)Man(a1-3)]Man(b1-4)GlcNAc(b1-4)GlcNAc
How it was run: as §1

[7] = molecular target: Neu5Ac(a2-6)Gal(b1-4)GlcNAc(b1-2)Man(a1-6)[GlcNAc(b1-2)Man(a1-3)]Man(b1-4)GlcNAc(b1-4)GlcNAc
How it was run: as §1

[8] = molecular target: Neu5Ac(a2-6)Gal(b1-4)GlcNAc(b1-2)Man(a1-6)[Man(a1-3)]Man(b1-4)GlcNAc(b1-4)GlcNAc
How it was run: as §1

[9] = molecular target: Neu5Ac(a2-6)Gal(b1-4)GlcNAc(b1-3)Gal(b1-3)GlcNAc
How it was run: as §1

[10] = molecular target: Neu5Ac(a2-6)Gal(b1-4)GlcNAc(b1-3)Gal(b1-4)GlcNAc
How it was run: as §1

[11] = molecular target: Neu5Ac(a2-6)Gal(b1-4)GlcNAc(b1-3)Gal(b1-4)GlcNAc(b1-3)Gal(b1-4)GlcNAc
How it was run: as §1

[12] = molecular target: Neu5Ac(a2-6)Gal(b1-4)GlcNAc(b1-3)Gal(b1-4)[Fuc(a1-3)]GlcNAc(b1-3)Gal(b1-4)[Fuc(a1-3)]GlcNAc
How it was run: as §1

[13] = molecular target: Neu5Ac(a2-6)Gal(b1-4)GlcNAc(b1-3)GalNAc
How it was run: as §1

[14] = molecular target: Neu5Ac(a2-6)Gal(b1-4)GlcNAc6S
How it was run: as §1

Neu5Ac(a2-6)GalNAc = molecular target: Neu5Ac(a2-6)GalNAc
How it was run: as §1

[15] = molecular target: Neu5Ac(a2-6)GalNAc(b1-4)GlcNAc
How it was run: as §1

[16] = molecular target: Neu5Ac(a2-6)GlcNAc(b1-4)GlcNAc
How it was run: as §1

[17] = molecular target: Neu5Ac(a2-6)GlcNAc(b1-4)GlcNAc(b1-4)GlcNAc
How it was run: as §1

Neu5Ac(a2-8)Neu5Ac = molecular target: Neu5Ac(a2-8)Neu5Ac
How it was run: as §1

[18] = molecular target: Neu5Ac(a2-8)Neu5Ac(a2-3)Gal(b1-3)GalNAc(b1-4)[Neu5Ac(a2-8)Neu5Ac(a2-3)]Gal(b1-4)Glc
How it was run: as §1

[19] = molecular target: Neu5Ac(a2-8)Neu5Ac(a2-3)Gal(b1-4)Glc
How it was run: as §1

[20] = molecular target: Neu5Ac(a2-8)Neu5Ac(a2-3)[Gal(b1-3)GalNAc(b1-4)]Gal(b1-4)Glc
How it was run: as §1

[21] = molecular target: Neu5Ac(a2-8)Neu5Ac(a2-3)[GalNAc(b1-4)]Gal(b1-4)Glc
How it was run: as §1

[22] = molecular target: Neu5Ac(a2-8)Neu5Ac(a2-8)Neu5Ac
How it was run: as §1

[23] = molecular target: Neu5Ac(a2-8)Neu5Ac(a2-8)Neu5Ac(a2-3)Gal(b1-4)Glc
How it was run: as §1

[24] = molecular target: Neu5Ac(a2-8)Neu5Ac(a2-8)Neu5Ac(a2-3)[GalNAc(b1-4)]Gal(b1-4)Glc
How it was run: as §1

[25] = molecular target: Neu5Ac(a2-8)Neu5Ac(a2-8)Neu5Ac(a2-8)Neu5Ac(a2-3)[GalNAc(b1-4)]Gal(b1-4)Glc
How it was run: as §1

[26] = molecular target: Neu5Ac(b2-6)Gal(b1-4)GlcNAc
How it was run: as §1

Neu5Ac(b2-6)GalNAc = molecular target: Neu5Ac(b2-6)GalNAc
How it was run: as §1

[27] = molecular target: Neu5Ac9Ac(a2-3)Gal(b1-3)GlcNAc
How it was run: as §1

[28] = molecular target: Neu5Ac9Ac(a2-3)Gal(b1-4)GlcNAc
How it was run: as §1

[29] = molecular target: Neu5Ac9Ac(a2-6)Gal(b1-4)GlcNAc
How it was run: as §1

[30] = molecular target: Neu5Gc(a2-3)Gal(b1-3)GlcNAc
How it was run: as §1

[31] = molecular target: Neu5Gc(a2-3)Gal(b1-3)[Fuc(a1-4)]GlcNAc
How it was run: as §1

Neu5Gc(a2-3)Gal(b1-4)Glc = molecular target: Neu5Gc(a2-3)Gal(b1-4)Glc
How it was run: as §1

[32] = molecular target: Neu5Gc(a2-3)Gal(b1-4)GlcNAc
How it was run: as §1

[33] = molecular target: Neu5Gc(a2-3)Gal(b1-4)[Fuc(a1-3)]GlcNAc
How it was run: as §1

[34] = molecular target: Neu5Gc(a2-6)Gal(b1-4)GlcNAc
How it was run: as §1

Neu5Gc(a2-6)GalNAc = molecular target: Neu5Gc(a2-6)GalNAc
How it was run: as §1

[35] = molecular target: Neu5Gc(b2-6)Gal(b1-4)GlcNAc
How it was run: as §1

B1: DCL-1 (Homo sapiens), Q8IX05 (protein)
chain: MLRAALPALLLPLLGLAAAAVADCPSSTWIQFQDSCYIFLQEAIKVESIEDVRNQCTDHGADMISIHNEEENAFILDTLKKQWKGPDDILLGMFYDTDDASFKWFDNSNMTFDKWTDQDDDEDLVDTCAFLHIKTGEWKKGNCEVSSVEGTLCKTAIPYKRKYLSDNHILISALVIASTVILTVLGAIIWFLYKKHSDSRFTTVFSTAPQSPYNEDCVLVVGEENEYPVQFD
Q: Which results are given for B1?
A: glycan array binding signal (z-score) [1]: -0.141; glycan array binding signal (z-score) [2]: -0.488; glycan array binding signal (z-score) [3]: -0.581; glycan array binding signal (z-score) [4]: 0.079; glycan array binding signal (z-score) [5]: 1.18; glycan array binding signal (z-score) [6]: -0.452; glycan array binding signal (z-score) [7]: 1.51; glycan array binding signal (z-score) [8]: -0.331; glycan array binding signal (z-score) [9]: -0.507; glycan array binding signal (z-score) [10]: 1.53; glycan array binding signal (z-score) [11]: -1.67; glycan array binding signal (z-score) [12]: -0.365; glycan array binding signal (z-score) [13]: -1.02; glycan array binding signal (z-score) [14]: -0.841; glycan array binding signal (z-score) (Neu5Ac(a2-6)GalNAc): 0.408; glycan array binding signal (z-score) [15]: -0.166; glycan array binding signal (z-score) [16]: 0.536; glycan array binding signal (z-score) [17]: -0.327; glycan array binding signal (z-score) (Neu5Ac(a2-8)Neu5Ac): -0.679; glycan array binding signal (z-score) [18]: -0.392; glycan array binding signal (z-score) [19]: -0.074; glycan array binding signal (z-score) [20]: -0.419; glycan array binding signal (z-score) [21]: -0.45; glycan array binding signal (z-score) [22]: 0.051; glycan array binding signal (z-score) [23]: -0.257; glycan array binding signal (z-score) [24]: 0.354; glycan array binding signal (z-score) [25]: -0.666; glycan array binding signal (z-score) [26]: -0.057; glycan array binding signal (z-score) (Neu5Ac(b2-6)GalNAc): 0.005; glycan array binding signal (z-score) [27]: -1.4; glycan array binding signal (z-score) [28]: 2.38; glycan array binding signal (z-score) [29]: 0.766; glycan array binding signal (z-score) [30]: -0.419; glycan array binding signal (z-score) [31]: 0.076; glycan array binding signal (z-score) (Neu5Gc(a2-3)Gal(b1-4)Glc): 0.504; glycan array binding signal (z-score) [32]: 0.142; glycan array binding signal (z-score) [33]: 0.508; glycan array binding signal (z-score) [34]: -0.439; glycan array binding signal (z-score) (Neu5Gc(a2-6)GalNAc): -1.08; glycan array binding signal (z-score) [35]: 0.729

Reference: the supplement of paper PMC8728848
